Measurements reported in PubChem BioAssay AID540276 (National Center for Advancing Translational Sciences (NCATS), 2011).
Out of some 300,000 compounds screened, about 5,400 (1.8%) were called active. Inconclusive results, whose numbers are uncertain, are shown with a selection of clear calls. The call rests on the fitted dose curve; tested in HEK293 cells. Where the call is inconclusive, the potency comes from a doubtful curve fit.

Assay: qHTS for inhibitors of binding or entry into cells for Marburg Virus
Conditions: Marburg virus pseudotyped entry inhibition, cell reporter; activity change, negative = inhibition: at 37.8 µM (top of the series) unless noted
On the % scale 0 is the no-effect control and ±100 the full control effect; potency means the concentration at half of the fitted maximal effect.

Compound	Potency	activity change, negative = inhibition
COc1ccc2nc(C)cc(N/N=C/c3cccc(OC)c3O)c2c1	inconclusive: 12.6 µM [inhibitor, partial curve, poor fit]	–
Nc1ccccc1C#Cc1ccc([N+](=O)[O-])cc1	inconclusive: 8.91 µM [inhibitor, partial curve, poor fit]	–
C[N+]1(C)[C@@H]2CC[C@H]1CC(OC(=O)c1c[nH]c3ccccc13)C2 (some centres not stated)	inactive	–
O=C(Nc1ccc(F)c(Cl)c1)c1cccnc1	inconclusive: 25.1 µM [activator, single point]	–
COc1ccc(CNC(=O)CSc2nnc(-c3cccnc3)n2N)cc1	–	inconclusive: 27.1% [activator] [at 46.1 µM]
CC[C@@H](C)[C@H](C(CC(=O)N1CCCC1[C@@H](OC)[C@H](C)C(=O)N[C@H](Cc1ccccc1)c1nccs1)OC)N(C)C(=O)[C@H](NC(=O)[C@@H](C(C)C)N(C)C)C(C)C (some centres not stated)	inactive	–
CN1CCN(S(=O)(=O)c2cnc(Cl)c(Br)c2)CC1	inconclusive: 0.316 µM [inhibitor, full curve, poor fit]	–
OC(c1ccc(Cl)cc1Cl)C(Cc1cccnc1)n1cncn1 (configuration not stated)	inactive	–
Cc1nc(NCc2ccccn2)c2c3c(sc2n1)CCCC3	inconclusive: 3.16 µM [inhibitor, partial curve, poor fit]	–
COc1cc(C(=O)N/N=C(\C)c2ccccn2)cc(OC)c1OC	inconclusive: 1.26 µM [inhibitor, full curve, poor fit]	–
O=C(COC(=O)/C=C/c1ccccc1[N+](=O)[O-])NC(=O)NC1CCCC1	inconclusive: 6.31 µM [activator, single point]	–
CC(=O)N1CCOc2ccc(S(=O)(=O)NCC3CCC(C(=O)NCCC(C)C)CC3)cc21 (configuration not stated)	inactive	–
O=C(NCC(=O)N(Cc1ccco1)C(C(=O)NC1CCCCC1)c1cccnc1)c1cccs1 (configuration not stated)	inconclusive: 35.5 µM [inhibitor, single point]	–
Nn1c(SCC(=O)NC2CCS(=O)(=O)C2)nnc1-c1ccco1 (configuration not stated)	inconclusive: 39.8 µM [activator, partial curve, poor fit]	–
COC(=O)c1ccccc1NC(=O)Cn1c(-c2nonc2N)nc2ccccc21	inconclusive: 16.4 µM [inhibitor, partial curve, poor fit]	–
O=C(Nc1ccccc1C(F)(F)F)N1CCN(C(c2ccccc2)c2ccccc2)CC1	inconclusive: 29.1 µM [inhibitor, single point]	–
O=C(COc1ccc2ccccc2c1Br)NC(=S)Nc1cccc(CO)c1	inconclusive: 16.4 µM [inhibitor, single point]	–
Cc1ccc(OCC(=O)N/N=C/c2ccncc2)cc1C	inconclusive: 10 µM [inhibitor, partial curve, poor fit]	–
CCN(CC)CCN(Cc1cc2cc3c(cc2[nH]c1=O)OCO3)C(=S)NCC1CCCO1 (configuration not stated)	inactive	–
COc1ccccc1NC(=O)Cc1nnc(SCC(=O)NC2CCCC2)n1C	inactive	–
Cc1[nH]c2ccccc2c1-c1nc2ccccc2[nH]c1=O	inactive	–
Cc1nn(-c2ccccc2)c(C)c1/C=N/NC(=O)c1cc(-c2ccccc2)n[nH]1	inconclusive: 2.24 µM [inhibitor, full curve]	–
CCOc1ccc(C2CC(=O)Nc3c2c(=O)nc(SCc2ccccc2C)n3C)cc1OC (configuration not stated)	inactive	–

Structural class, those above with four or more nitrogen atoms
Compound	Potency	activity change, negative = inhibition
COc1ccc(CNC(=O)CSc2nnc(-c3cccnc3)n2N)cc1	–	inconclusive: 27.1% [activator] [at 46.1 µM]
CC[C@@H](C)[C@H](C(CC(=O)N1CCCC1[C@@H](OC)[C@H](C)C(=O)N[C@H](Cc1ccccc1)c1nccs1)OC)N(C)C(=O)[C@H](NC(=O)[C@@H](C(C)C)N(C)C)C(C)C (some centres not stated)	inactive	–
OC(c1ccc(Cl)cc1Cl)C(Cc1cccnc1)n1cncn1 (configuration not stated)	inactive	–
Cc1nc(NCc2ccccn2)c2c3c(sc2n1)CCCC3	inconclusive: 3.16 µM [inhibitor, partial curve, poor fit]	–
O=C(NCC(=O)N(Cc1ccco1)C(C(=O)NC1CCCCC1)c1cccnc1)c1cccs1 (configuration not stated)	inconclusive: 35.5 µM [inhibitor, single point]	–
Nn1c(SCC(=O)NC2CCS(=O)(=O)C2)nnc1-c1ccco1 (configuration not stated)	inconclusive: 39.8 µM [activator, partial curve, poor fit]	–
COC(=O)c1ccccc1NC(=O)Cn1c(-c2nonc2N)nc2ccccc21	inconclusive: 16.4 µM [inhibitor, partial curve, poor fit]	–
CCN(CC)CCN(Cc1cc2cc3c(cc2[nH]c1=O)OCO3)C(=S)NCC1CCCO1 (configuration not stated)	inactive	–
COc1ccccc1NC(=O)Cc1nnc(SCC(=O)NC2CCCC2)n1C	inactive	–
Cc1nn(-c2ccccc2)c(C)c1/C=N/NC(=O)c1cc(-c2ccccc2)n[nH]1	inconclusive: 2.24 µM [inhibitor, full curve]	–

Single records (already shown). Order of values: Potency | activity change, negative = inhibition
CN1CCN(S(=O)(=O)c2cnc(Cl)c(Br)c2)CC1 reads inconclusive: 0.316 µM [inhibitor, full curve, poor fit] | –
CC[C@@H](C)[C@H](C(CC(=O)N1CCCC1[C@@H](OC)[C@H](C)C(=O)N[C@H](Cc1ccccc1)c1nccs1)OC)N(C)C(=O)[C@H](NC(=O)[C@@H](C(C)C)N(C)C)C(C)C (some centres not stated) reads inactive | –

More results:

Compound	Potency	activity change, negative = inhibition
CC(=O)c1ccc(OCCCC(=O)N2CCN(S(=O)(=O)c3cc(C)ccc3C)CC2)cc1	inconclusive: 10 µM [inhibitor, single point]	–
O=C(Nc1sc2c(c1C(=O)NCC1CCCO1)CCC2)c1cc(=O)c2ccccc2o1 (configuration not stated)	inconclusive: 6.31 µM [inhibitor, single point]	–
CCN(CC)S(=O)(=O)c1cccc(NC(=O)COC(=O)CCC(=O)c2cccs2)c1	inconclusive: 3.16 µM [inhibitor, partial curve, poor fit]	–
COC(=O)C(C)(C)ONC(=O)Nc1ccccc1	inconclusive: 6.31 µM [activator, full curve]	–
CCCCCNC(=O)CCCCCn1c(=O)[nH]c2ccsc2c1=O	inconclusive: 10 µM [activator, partial curve]	–
CCc1ccc(N2CC(C(=O)OC)CC2=O)cc1 (configuration not stated)	inconclusive: 1.41 µM [inhibitor, single point]	–
COCCCNc1oc(-c2ccc(COc3ccc(Cl)cc3)o2)nc1C#N	inconclusive: 5.62 µM [activator, single point]	–
CN(C)CCC1Sc2ccccc2Oc2ccccc21 (configuration not stated)	inconclusive: 35.5 µM [inhibitor, single point]	–
c1ccc(-c2n[nH]c3c2CCC3)cc1	inconclusive: 5.01 µM [activator, partial curve]	–
O=C(Cc1cccc2ccccc12)NN1C(=O)/C(=C\c2cccnc2)SC1=S	inactive	–
NC(=O)c1nsc(C(=O)N(c2ccc(F)cc2)C(C(=O)NCC2CCCO2)c2ccc3ncccc3c2)c1N (configuration not stated)	inconclusive: 35.5 µM [inhibitor, single point]	–
COc1cccc(-n2cc3c(=O)n(C)c(=O)n(C)c3c2)c1	inconclusive: 20 µM [activator, partial curve, poor fit]	–
CNC(=O)Oc1cccc(-c2cn3cc(OC(=O)NC)ccc3n2)c1	inconclusive: 35.5 µM [inhibitor, single point]	–
COc1cc2nc(CN(C)CC(=O)Nc3ccc(N4CCOCC4)cc3)[nH]c(=O)c2cc1OC	inconclusive: 35.5 µM [activator, single point]	–
CCN(Cc1nc2cc(Cl)ccc2c(=O)[nH]1)C(=O)c1cc2c(s1)CCCCC2	inconclusive: 1.41 µM [inhibitor, full curve, poor fit]	–
Cc1ccc(NC(=O)CCc2c(C)nc3cc(-c4ccccc4)nn3c2C)cc1F	inactive	–
CCCNC(=O)c1nc(C)n(-c2cc(Cl)ccc2Cl)n1	inactive	–
O=C(NC1CCCC1)C(c1ccc(F)cc1)N(Cc1ccccc1Cl)C(=O)CCl (configuration not stated)	inconclusive: 28.2 µM [inhibitor, partial curve, poor fit]	–
N#CC1=C2C=Cc3ccccc3N2CCCC1=O	inconclusive: 3.55 µM [activator, single point]	–
CCc1cc(C(=O)Nc2cnn(Cc3ccccc3C)c2)no1	inconclusive: 6.31 µM [activator, single point]	–
Cc1cccc(C(=O)NCc2ccco2)c1	inconclusive: 17.8 µM [activator, single point]	–
CCOc1ccc(N2C(=O)CS/C2=C(\C(Cl)=C(Cl)Cl)[N+](=O)[O-])cc1	inactive	–
CC(/C=C1\SC(=S)N(CCCC(=O)Nc2ccc(C(=O)O)c(O)c2)C1=O)=C\c1ccccc1	inactive	–

Compound	Potency	activity change, negative = inhibition
O=C(Nc1ccccc1F)c1ccc(CNS(=O)(=O)c2cccc(C(F)(F)F)c2)cc1	inconclusive: 31.6 µM [activator, single point]	–
CC(O)C(NS(=O)(=O)c1ccc(Cl)cc1)C(=O)OCc1cc([N+](=O)[O-])cc2c1OCOC2 (configuration not stated)	inconclusive: 11.2 µM [inhibitor, partial curve, poor fit]	–
Nc1c(C(=O)OCC2CCCO2)c2nc3ccccc3nc2n1Cc1cccs1 (configuration not stated)	inconclusive: 22.4 µM [inhibitor, partial curve, poor fit]	–
CC(Nc1c[nH]c(=O)[nH]c1=O)c1ccccc1 (configuration not stated)	inactive	–
CSC(=NCCCN1CCOCC1)NS(=O)(=O)c1cccs1	inconclusive: 3.16 µM [inhibitor, single point]	–
O=c1cccc2n1CC1CC2CN(S(=O)(=O)c2ccccc2)C1 (configuration not stated)	inactive	–
COc1ccc(C2N(C(=O)N(C)C)CCN2S(=O)(=O)c2ccc(OC)cc2)cc1 (configuration not stated)	inconclusive: 4.47 µM [inhibitor, full curve, poor fit]	–
O=C(CSc1ccc(Cl)cc1)Nc1nnc(-c2cccc([N+](=O)[O-])c2)s1	inactive	–
Cc1ccc(-n2nnnc2-c2cccc(C)c2)cc1	inconclusive: 1 µM [inhibitor, full curve, poor fit]	–
CCOC(=O)CCNC(=O)Nc1cc2nc(C)n(Cc3cccc(Cl)c3)c2nc1C	inconclusive: 6.31 µM [inhibitor, single point]	–
COc1ccccc1CN1CC(C(=O)NCCN(C)CCc2ccccc2)CCC1=O (configuration not stated)	inconclusive: 6.31 µM [activator, single point]	–
CCOC(=O)c1ccc(NC(=O)c2ccc(NC(=O)C3CCCO3)cc2)cc1 (configuration not stated)	inconclusive: 35.5 µM [inhibitor, single point]	–
Cc1cc(C(=O)OCC(=O)Nc2cc(S(=O)(=O)N(C)C)ccc2C)c2ccccc2n1	inactive	–
Cc1ccc2c(c1)nnn2C1CCN(S(=O)(=O)c2ccc(C(=O)O)cc2)CC1	inactive	–
O=C(NCCC1=CCCCC1)C(=O)NCC(c1ccco1)N1CCN(c2ccc(F)cc2)CC1 (configuration not stated)	inactive	–
CC1CCCC(NC(=O)CNC(=O)c2cccs2)C1C (configuration not stated)	inactive	–
COc1ccc(CCCC(=O)NCc2ccccc2)cc1C	inactive	–
O=C(O)c1cccc2c1Cc1cc(Cl)ccc1-2	inconclusive: 1.78 µM [activator, partial curve, poor fit]	–
COc1ccc(/C=C2/Sc3ccc(C(=O)NCCCN4CCOCC4)cc3NC2=O)cc1OC	inconclusive: 28.2 µM [inhibitor, single point]	–
Cc1cc(=O)[nH]c(SCC(=O)Nc2nnc(SCc3ccccc3)s2)n1	inconclusive: 35.5 µM [inhibitor, single point]	–
Cc1ccccc1C(=O)N1CCC(C(=O)N2CCCc3ccccc32)CC1	inactive	–
